Measured values as given in patent US20160032001A1 (APEXIGEN, published 2016).
Where a chain is given by its changes, count along the chain named. These are yes or no findings as the source states them, for the method shown. Some binding calls cover weakened binding; strength is not graded here.

T1: RANKL expressed on the surface of 293 cells (UniProt O14788)
T1 sequence (looked up): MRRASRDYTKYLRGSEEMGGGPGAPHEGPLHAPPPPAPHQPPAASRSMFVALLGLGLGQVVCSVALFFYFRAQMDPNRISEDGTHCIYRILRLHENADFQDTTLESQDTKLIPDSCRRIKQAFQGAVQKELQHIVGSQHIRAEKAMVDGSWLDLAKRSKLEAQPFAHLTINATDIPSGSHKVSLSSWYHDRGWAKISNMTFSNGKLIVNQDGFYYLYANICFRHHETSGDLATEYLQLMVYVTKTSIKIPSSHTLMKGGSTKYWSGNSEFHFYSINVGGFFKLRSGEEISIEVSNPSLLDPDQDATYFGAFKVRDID

B1: clone EBI-51-11 rabbit anti-RANKL antibody (antibody, V domains shown)
VH: QSVEESGGRLITPGTPLTLTCTVSGFSLSTDVVSWVRQAPGTGLEWIGYTWSGGSTYYAIWAKGRFTISKTSSTTVDLKITSPTTEDTATYFCARGFNPFDPWGPGTLVTVSS
VL: DMTQTPASVSEPVGGTVTIKCQASQNIGSNLAWYQQKPGQRPKLLIYRASTLASGVSSRFKGSGSGTQFTLTISDLECADAATYYCQQGYSAGNVDKHVFGGGTEVVVK
B2: clone 210 rabbit anti-RANKL antibody (antibody, V domains shown)
VH: QSVKESGGGLVTPGGTLTLTCTASGFSLSNNAMSWVRQAPGKGLEWIGYIYPGGSPYYANWAKGRFTISRTSTTVDLKMTSLTTEDTATYFCARHVSDGGWYLYIWGPGTLVTVSL
VL: DMIQTPASVEVAVGGTVTINCQASQSIGSNLAWYQQKPGQPPKLLIYGASTLASGVPSRFKGSGSGTQFTFTISDVECTAAATYYCQQAYSISNVDNAFGGGTEVVVK
B3: clone 379 rabbit anti-RANKL antibody (antibody, V domains shown)
VH: QEQLKESGGGLVTPGGTLTLTCTASRFSLINIGMSWVRQAPGRGLEWIGYIYSGGSPYYANWAKGRFTISRTSTTVDLKMTSLTTEDTATYFCARHASDGGWYLDIWGPGTLVTVSL
VL: B2 VL with G48L, A53P, A80D, S91T, I92A
B4: clone 318 rabbit anti-RANKL antibody (antibody, V domains shown)
VH: QDQLKESGGGLVTPGGTLTLTCTASGFSLGSNGMSWVRQAPGKGLEWIGYIYSGSSPYYASWAKGRFTISKTSSTTVDLKMTSLTTEDTATYFCAGHAKGGGWYLDIWGPGTLVTVSL
VL: B2 VL with I3T, E10S, V11A, A32G, P57S, Q68H, T70A, A80D, I92V, S93G
B5: clone 447 rabbit anti-RANKL antibody (antibody, V domains shown)
VH: QEQLKESGGGLVTPGGILTLTCTASGFSLRSNAMSWVRQAPGKGLEWIGYIYPGGAPHYASWAKGRFTISRNSTTVDLKMTSLTTEDTATYFCARHVSGGGWYLDIWGPGTLVTVSL
VL: B2 VL with A12G, S26N, L44F, P57S, Q68R, A80D, I92V, S93G
B6: clone 246 rabbit anti-RANKL antibody (antibody, V domains shown)
VH: QSVKESGGGLVTPGGTLTLTCTASGLSLSGNGMSWVRQAPGKGLEWIGYIYSGSSPYYASWAKGRFTISKTSSTTVDLKMTSLTTEDTATYFCARHTSGGGWYLDIWGPGTLVTVSL
VL: B2 VL with G48S, P57S, Q68D, F69Y, F71L, A80D, D96E, A98P
B7: clone 238 rabbit anti-RANKL antibody (antibody, V domains shown)
VH: B3 VH with R26G, I30N, N31T, I32N, G33A, R43K, D77H, R95S, A97T, D99G
VL: B2 VL with S26N, A49T, P57S, S65F, A80D, I92T, N94K, V95I
B8: clone 420 rabbit anti-RANKL antibody (antibody, V domains shown)
VH: B5 VH
VL: B2 VL with A12G, S26N, L44F, P57S, Q68R, A80D, I92V, S93G
B9: clone 7 rabbit anti-RANKL antibody (antibody, V domains shown)
VH: B4 VH with D2E, G30T, S31T, S55G, S61N, G96R, A98L, K99S
VL: B2 VL with I3T, S26N, P57S, A80D, A81P, A98P
B10: clone 416 rabbit anti-RANKL antibody (antibody, V domains shown)
VH: B2 VH with A23V, N30R, A39T, P52S, G54S, Y104D, T113A
VL: B2 VL with A12V, I19F, S26N, G48S, A80D
B11: clone 547 rabbit anti-RANKL antibody (antibody, V domains shown)
VH: B4 VH with D2E, G30S, T91K, G96R, A98V, K99S
VL: B2 VL with P41R, P57S, F60V, A80D
B12: clone 193 rabbit anti-RANKL antibody (antibody, V domains shown)
VH: QSVEESGGRLVTPGTPLTLTCTFSGFSLSNNAINWVRQAPGKGLEWIGYTWSGGGTYCASWAKGRFTISKTSSTTVDLKMTSLTTEDTATYFCARAYDSEWDRLDLWGQGTLVTVSS
VL: VMTQTPASVSGPVGGTVTIKCQASQSIGSNLGWYQQKPGQPPKLLIFSASNLESGVPSRFKGSGSGTQFTLTISDLECDDAATYYCQQGYTTNNVLNAFAGGTEVVVK
B13: clone 220 rabbit anti-RANKL antibody (antibody, V domains shown)
VH: QSLEESGGRLVTPGTPLTLTCTVSGFSLSKYEINWVRQAPGKGLEWIGYIDVGSGTWYASWAKGRFTISKTSTTVALRITSPTTEDTATYFCSRQYNPMDLWGPGTLVTVSS
VL: DMTQTPASVEAAVGGTVTIKCQASQNIGSNLAWYQQKPGQRPKLLIYSASTLASGVPSRFKGSGSGTQFTLTISGVQCDDAATYYCQQGYSVGNVNNAFGGGTEVVVK
B14: clone 256 rabbit anti-RANKL antibody (antibody, V domains shown)
VH: B13 VH
VL: B13 VL
B15: clone 37 rabbit anti-RANKL antibody (antibody, V domains shown)
VH: QSVEESGGRLVTPGTPLTLTCTVSGFSLSNDVMSWVRQAPGKGLEWIGYIWSGGSPYYANWAKGRFTISKSSSTTVDLKITSPTTEDTAAYFCARGFGSSGLNIWGPGTLVTVSL
VL: B13 VL with A11V, N26S, R41S, T51I, V95I, N96D
B16: clone 91 rabbit anti-RANKL antibody (antibody, V domains shown)
VH: QSLEESGGRLVKPDETLTLTCTVSGSSLYNYEINWVRQAPGKGLEWIGYIDVGSGTWYASWAKGRFTISKTSTTVDLKITSPTTEDTATYFCTRKYNPMDLWGPGTLVTVSS
VL: B13 VL with A11V, R41P, A49T, L52V, S65F, V92A, A98P
B17: clone 327 rabbit anti-RANKL antibody (antibody, V domains shown)
VH: B13 VH
VL: B13 VL
B18: clone 480 rabbit anti-RANKL antibody (antibody, V domains shown)
VH: B13 VH with T15G, P16S, K30N, A76D, R78K, E85G, Q95S
VL: B13 VL with A11V
B19: clone 227 rabbit anti-RANKL antibody (antibody, V domains shown)
VH: B16 VH with S26F
VL: B13 VL with A11V, R41P, A49T, L52V, S65F, V92A, A98P
B20: clone 270 rabbit anti-RANKL antibody (antibody, V domains shown)
VH: B15 VH with N30S, E45D, S55R
VL: B13 VL with A11V, S29Y, R41P, S48G, G93S, V95I, N96D
B21: clone 415 rabbit anti-RANKL antibody (antibody, V domains shown)
VH: B13 VH with L3V, T15G, P16S, K30N, I33M, A76D, R78K
VL: B13 VL with A11V
B22: clone 191 rabbit anti-RANKL antibody (antibody, V domains shown)
VH: QSVEESGGRLVTPGTPLTLTCTVSGFSLYTNLINWVRQAPGKGLEWIGYINYGASAYYANWAKGRFTISQTSSTTVDLKMTSLTIEDTATYFCARGYGNDWDRLDLWGQGTLVTVSS
VL: IVMTQTPSPVSGAVGGTVTINCQASQSIGSNLAWYQQKPGQPPKLLIYSASILASGAPSRVSGSGYGTEFTLTISGVQCADAATYYCQQGYTTNADNIFGGGTEVVVE
B23: clone 388 rabbit anti-RANKL antibody (antibody, V domains shown)
VH: QSVEESGGRLVTPGTPLTLTCTVSGFSLSSGVVSWVRQAPGKGLEWIGYAWSGGPTYYANWAKGRFTISKSSTTVDLKITSPTTADTATYFCARGYNGMDPWGPGTLVTVSS
VL: DMTQTPASVEVAVGGTVTIKCQASQNIGSNLAWYQQKPGQPPKLLIYKASTLASGVPSRFRGSGSGTEFTLAISDLECADAATYYCQQGYTTKDVVNPFGGGTEVVVK
B24: clone 411 rabbit anti-RANKL antibody (antibody, V domains shown)
VH: B23 VH
VL: B23 VL
B25: clone 130 rabbit anti-RANKL antibody (antibody, V domains shown)
VH: B23 VH with P55A, N60S
VL: B23 VL with V95L
B26: clone 299 rabbit anti-RANKL antibody (antibody, V domains shown)
VH: QSLEESGGRLVTPGTPLTLTCTVSGIDLSSSLMTWVRQAPGKGLEWIGYIWSGGAPFYASWAKGRFTISKTSSTTVDLKMTSLTTEDTATYFCAARYTDSGFDALDPWGPGTLVTVSS
VL: DMTQTPASVEAAVGGTVTIKCQASQSIGSYLSWYHQKPGQPPKLLIYRASTLASGVPSRFKGSGSGTQFTLTISDLECADAATYYCQQGYSANVDNAFGGGTEVVVK
B27: clone 383 rabbit anti-RANKL antibody (antibody, V domains shown)
VH: QSLEESGGDLVKPGASLTLTCTASGFSFSRYVCWVRQAPGKGLEWIGCIAAGSSGYTYYASWAKGRLTISKTSSTTLTLQMTSLTVADTATYFCARSGDSYVGYFNLWGPGTLVTVSS
VL: IVMTQTPASVEAAVGGTVTIKCQASQNIYNYLAWYQQQPGQPPKLLIYSASNLASGVSSRFKGSGSGTEFTLTISDLECGDAATYYCQSYYDSSRISYGSAFGGGTEVVVK

Target: T1, RANKL expressed on the surface of 293 cells
Assay: flow cytometry, RANKL-transfected 293 cells

| binding | Binder |
| --- | --- |
| binds | B1 |
| binds | B2 |
| binds | B3 |
| binds | B4 |
| binds | B5 |
| binds | B6 |
| binds | B7 |
| binds | B8 |
| binds | B9 |
| binds | B10 |
| binds | B11 |
| binds | B12 |
| binds | B13 |
| binds | B14 |
| binds | B15 |
| binds | B16 |
| binds | B17 |
| binds | B18 |
| binds | B19 |
| binds | B20 |
| binds | B21 |
| binds | B22 |
| binds | B23 |
| binds | B24 |
| binds | B25 |
| binds | B26 |
| binds | B27 |
